Data source: PubChem BioAssay AID1259286 (Sanger Institute, 2017)

Aim: 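Kinome knock-downs lethal on their own or synergistic with anchor drugs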 (primary screen)
System: NCI-H630 human colorectal cancer cells
Reagents: siRNA pool against human genes
Treatment: anchor drugs BYL719 at 1 µM, cetuximab at 5 µg/ml or trametinib at 10 nM, or DMSO vehicle alone; exposure time not given
Measurement: 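Replicate-averaged viability as a fraction of non-targeting control, knock-down-alone robust z-score, and per-drug synergy scores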
Direction: viability z-score, knock-down alone: higher = more viable cells, weaker knock-down effect; viability vs control, knock-down alone: higher = more viable cells; synergy score with trametinib: higher = stronger synergistic killing with trametinib; synergy score with BYL719: higher = stronger synergistic killing with BYL719; synergy score with cetuximab: higher = stronger synergistic killing with cetuximab
Active means: 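a gene is called essential when its knock-down-alone viability robust z-score is below -3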
Meaning of the calls: active = essential when knocked down alone; inactive = not essential alone
This is one part, drawn at random, of 794 reagents tested. 17 of all reagents (2.1%) count as active. 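Calls use knock-down alone only; synergy above 0.15 marked separately; viability seems capped at control level; exposure time not given.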 Unmarked entries are inactive. Reagent sequences are not shown. Not given: the amount of reagent, the time to read-out.

Gene	viability z-score, knock-down alone	viability vs control, knock-down alone (fraction of control)	synergy score with trametinib	synergy score with BYL719	synergy score with cetuximab
ANKK1 (ankyrin repeat and kinase domain containing 1)	0.464	1	-0.0479	-0.0625	0.00724
PINK1 (PTEN induced kinase 1)	0.464	1	-0.0168	0.0193	0.025
HASPIN (histone H3 associated protein kinase)	0.464	1	-0.0479	-0.036	0.0308
CRKL (CRK like proto-oncogene, adaptor protein)	0.464	1	-0.0479	-0.0814	-0.0625
ATP23	0.464	1	-0.0334	-0.0174	0.116
SGK3 (serum/glucocorticoid regulated kinase family member 3)	0.464	1	-0.0479	-0.0373	-0.0371
MARK2 (microtubule affinity regulating kinase 2)	0.262	0.992	-0.0146	0.0781	0.0924
PLK1 (polo like kinase 1)	-9.44 (active)	0.625	-0.0103	0.0723	0.0751
MVK (mevalonate kinase)	0.464	1	-0.0479	-0.00608	0.04
CAMK2D (calcium/calmodulin dependent protein kinase II delta)	-0.264	0.972	-0.0741	-0.0618	-0.056
RIOK1 (RIO kinase 1)	0.464	1	-0.0479	-0.0814	0.0538
CAD	0.464	1	-0.0479	-0.0814	0.00732
ULK1 (unc-51 like autophagy activating kinase 1)	0.464	1	-0.00521	0.00174	0.0436
ADGRL2 (adhesion G protein-coupled receptor L2)	0.464	1	-0.0457	0.0969	0.0115
ATRX (ATRX chromatin remodeler)	0.464	1	-0.0479	-0.0456	-0.0734
BCR (BCR activator of RhoGEF and GTPase)	0.464	1	0.0145	-0.0728	0.0782
CERK (ceramide kinase)	0.464	1	-0.0296	-0.0814	0.152
NEK2 (NIMA related kinase 2)	0.464	1	-0.0211	0.0797	0.0661
CSNK2A2 (casein kinase 2 alpha 2)	-1.84	0.913	-0.0106	-0.054	0.0327
TNNI3K (TNNI3 interacting kinase)	0.464	1	-0.0479	-0.0633	-0.11

Records above called active:
Gene	viability z-score, knock-down alone	viability vs control, knock-down alone (fraction of control)	synergy score with trametinib	synergy score with BYL719	synergy score with cetuximab
PLK1 (polo like kinase 1)	-9.44 (active)	0.625	-0.0103	0.0723	0.0751
